{
  "sequences": {"note": "Protein sequences, listed by entry. Tags and fused reporters are not part of them. Lines headed by an entry give the natural chain unless they say otherwise; changes in a name come on top.", "UniProt P23919": "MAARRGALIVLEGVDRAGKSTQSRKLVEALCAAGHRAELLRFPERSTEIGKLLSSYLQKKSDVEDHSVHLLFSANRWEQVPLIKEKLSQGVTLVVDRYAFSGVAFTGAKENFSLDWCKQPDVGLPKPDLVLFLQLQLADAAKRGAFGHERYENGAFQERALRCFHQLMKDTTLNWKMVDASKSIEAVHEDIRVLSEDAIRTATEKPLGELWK", "UniProt Q9UNI6, whole entry, looked up": "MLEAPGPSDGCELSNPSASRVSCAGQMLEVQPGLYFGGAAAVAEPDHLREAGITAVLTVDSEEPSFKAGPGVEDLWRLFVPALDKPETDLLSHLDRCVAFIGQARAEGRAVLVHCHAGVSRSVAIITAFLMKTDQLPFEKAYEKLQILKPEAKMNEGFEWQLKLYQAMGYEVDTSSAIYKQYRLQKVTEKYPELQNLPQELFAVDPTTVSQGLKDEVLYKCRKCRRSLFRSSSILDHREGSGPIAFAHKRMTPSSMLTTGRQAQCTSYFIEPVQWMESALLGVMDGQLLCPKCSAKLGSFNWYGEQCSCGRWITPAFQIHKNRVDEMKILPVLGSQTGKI", "UniProt Q14919": "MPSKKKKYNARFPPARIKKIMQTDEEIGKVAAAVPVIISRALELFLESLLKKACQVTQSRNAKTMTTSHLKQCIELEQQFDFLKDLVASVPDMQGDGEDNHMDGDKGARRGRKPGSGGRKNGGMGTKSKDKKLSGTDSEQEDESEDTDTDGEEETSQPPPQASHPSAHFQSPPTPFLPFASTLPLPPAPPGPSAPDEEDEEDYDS", "UniProt Q5VYK3, whole entry, looked up": "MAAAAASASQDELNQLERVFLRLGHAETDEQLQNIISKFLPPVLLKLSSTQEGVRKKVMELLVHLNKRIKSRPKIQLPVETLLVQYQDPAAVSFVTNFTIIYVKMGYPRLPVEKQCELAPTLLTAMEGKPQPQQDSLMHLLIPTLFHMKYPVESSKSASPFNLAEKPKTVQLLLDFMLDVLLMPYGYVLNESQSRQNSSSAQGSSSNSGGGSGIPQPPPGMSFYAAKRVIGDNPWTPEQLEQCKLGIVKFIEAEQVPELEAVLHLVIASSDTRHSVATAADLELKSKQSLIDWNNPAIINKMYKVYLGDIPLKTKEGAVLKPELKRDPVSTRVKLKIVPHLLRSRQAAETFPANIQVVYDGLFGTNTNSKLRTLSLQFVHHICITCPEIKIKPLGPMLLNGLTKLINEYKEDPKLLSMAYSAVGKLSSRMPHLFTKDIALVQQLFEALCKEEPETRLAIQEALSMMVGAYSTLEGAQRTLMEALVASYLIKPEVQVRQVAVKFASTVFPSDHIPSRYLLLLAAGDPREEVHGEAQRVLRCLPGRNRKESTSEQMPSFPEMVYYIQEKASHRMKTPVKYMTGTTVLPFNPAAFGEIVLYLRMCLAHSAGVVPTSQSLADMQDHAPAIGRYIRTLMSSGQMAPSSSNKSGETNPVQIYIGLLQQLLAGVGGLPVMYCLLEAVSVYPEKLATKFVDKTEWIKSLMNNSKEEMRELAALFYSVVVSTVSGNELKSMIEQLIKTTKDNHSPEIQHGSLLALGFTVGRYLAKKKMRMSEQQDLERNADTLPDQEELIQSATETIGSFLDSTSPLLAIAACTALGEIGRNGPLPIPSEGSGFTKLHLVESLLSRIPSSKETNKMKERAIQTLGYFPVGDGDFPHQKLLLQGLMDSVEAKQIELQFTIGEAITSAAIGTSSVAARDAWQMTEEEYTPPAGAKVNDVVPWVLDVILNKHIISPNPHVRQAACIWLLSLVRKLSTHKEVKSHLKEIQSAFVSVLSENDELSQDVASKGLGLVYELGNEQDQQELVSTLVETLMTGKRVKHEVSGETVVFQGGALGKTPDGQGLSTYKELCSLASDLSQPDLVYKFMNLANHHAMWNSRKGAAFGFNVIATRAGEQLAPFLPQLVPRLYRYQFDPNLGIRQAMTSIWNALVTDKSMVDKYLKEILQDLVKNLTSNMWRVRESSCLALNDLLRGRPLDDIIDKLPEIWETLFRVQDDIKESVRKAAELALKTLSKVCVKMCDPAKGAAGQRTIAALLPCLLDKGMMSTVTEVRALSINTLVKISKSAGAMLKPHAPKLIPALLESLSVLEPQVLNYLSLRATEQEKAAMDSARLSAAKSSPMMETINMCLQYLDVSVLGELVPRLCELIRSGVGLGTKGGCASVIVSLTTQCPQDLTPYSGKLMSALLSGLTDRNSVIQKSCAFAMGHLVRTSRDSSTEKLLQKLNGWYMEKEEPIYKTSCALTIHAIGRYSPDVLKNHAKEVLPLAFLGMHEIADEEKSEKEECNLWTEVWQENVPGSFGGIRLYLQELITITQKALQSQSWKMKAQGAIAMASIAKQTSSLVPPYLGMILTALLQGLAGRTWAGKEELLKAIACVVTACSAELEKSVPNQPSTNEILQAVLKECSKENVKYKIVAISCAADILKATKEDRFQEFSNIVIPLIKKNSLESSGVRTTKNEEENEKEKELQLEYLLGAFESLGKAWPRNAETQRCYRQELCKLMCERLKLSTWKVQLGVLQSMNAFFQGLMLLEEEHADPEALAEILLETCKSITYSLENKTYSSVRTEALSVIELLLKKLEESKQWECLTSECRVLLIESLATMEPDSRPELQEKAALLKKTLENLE", "UniProt Q6V1X1": "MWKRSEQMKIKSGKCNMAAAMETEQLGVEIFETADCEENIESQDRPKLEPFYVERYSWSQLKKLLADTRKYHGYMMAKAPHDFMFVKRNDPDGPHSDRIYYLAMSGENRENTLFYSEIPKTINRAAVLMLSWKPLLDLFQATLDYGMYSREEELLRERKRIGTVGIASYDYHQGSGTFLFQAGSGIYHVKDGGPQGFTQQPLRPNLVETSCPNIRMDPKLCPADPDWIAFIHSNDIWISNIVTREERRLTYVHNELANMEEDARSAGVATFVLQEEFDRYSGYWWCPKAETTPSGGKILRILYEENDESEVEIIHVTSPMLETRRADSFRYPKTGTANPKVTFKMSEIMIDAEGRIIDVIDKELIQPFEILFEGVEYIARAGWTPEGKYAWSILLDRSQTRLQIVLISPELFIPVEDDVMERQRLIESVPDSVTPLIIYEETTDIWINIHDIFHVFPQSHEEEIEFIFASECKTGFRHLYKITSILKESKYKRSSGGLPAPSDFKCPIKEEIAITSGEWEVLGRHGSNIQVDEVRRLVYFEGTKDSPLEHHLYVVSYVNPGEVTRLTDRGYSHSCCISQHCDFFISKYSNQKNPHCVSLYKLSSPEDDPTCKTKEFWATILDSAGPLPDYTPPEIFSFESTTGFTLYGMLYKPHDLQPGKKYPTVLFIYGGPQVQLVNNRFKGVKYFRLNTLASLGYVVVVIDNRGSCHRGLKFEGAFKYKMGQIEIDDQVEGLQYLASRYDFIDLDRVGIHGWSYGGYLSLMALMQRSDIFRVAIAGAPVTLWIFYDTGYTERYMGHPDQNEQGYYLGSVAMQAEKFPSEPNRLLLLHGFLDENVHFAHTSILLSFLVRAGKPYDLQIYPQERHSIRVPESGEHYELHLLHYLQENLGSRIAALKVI", "UniProt P63167, whole entry, looked up": "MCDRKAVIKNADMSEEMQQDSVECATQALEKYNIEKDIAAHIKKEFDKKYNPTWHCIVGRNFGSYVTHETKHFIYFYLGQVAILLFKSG", "UniProt P98172": "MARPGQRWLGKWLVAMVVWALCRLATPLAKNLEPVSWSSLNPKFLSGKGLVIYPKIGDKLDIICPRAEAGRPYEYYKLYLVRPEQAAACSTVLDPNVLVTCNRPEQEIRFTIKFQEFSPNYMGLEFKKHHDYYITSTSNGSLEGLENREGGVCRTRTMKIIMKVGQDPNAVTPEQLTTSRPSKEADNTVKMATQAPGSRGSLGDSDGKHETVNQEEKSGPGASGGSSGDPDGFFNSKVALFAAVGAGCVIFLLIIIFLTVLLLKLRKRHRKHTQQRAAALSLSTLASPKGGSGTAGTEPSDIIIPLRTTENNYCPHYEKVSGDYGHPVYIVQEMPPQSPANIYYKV", "UniProt Q9NTX5": "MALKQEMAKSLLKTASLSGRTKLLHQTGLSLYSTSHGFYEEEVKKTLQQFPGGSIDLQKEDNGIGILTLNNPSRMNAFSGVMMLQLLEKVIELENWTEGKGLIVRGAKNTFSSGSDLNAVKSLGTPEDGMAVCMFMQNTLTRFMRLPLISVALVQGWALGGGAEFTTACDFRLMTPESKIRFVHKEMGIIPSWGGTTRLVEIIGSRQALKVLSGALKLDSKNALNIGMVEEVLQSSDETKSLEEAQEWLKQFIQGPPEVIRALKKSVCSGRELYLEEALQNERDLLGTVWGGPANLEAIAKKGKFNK", "UniProt O43237, whole entry, looked up": "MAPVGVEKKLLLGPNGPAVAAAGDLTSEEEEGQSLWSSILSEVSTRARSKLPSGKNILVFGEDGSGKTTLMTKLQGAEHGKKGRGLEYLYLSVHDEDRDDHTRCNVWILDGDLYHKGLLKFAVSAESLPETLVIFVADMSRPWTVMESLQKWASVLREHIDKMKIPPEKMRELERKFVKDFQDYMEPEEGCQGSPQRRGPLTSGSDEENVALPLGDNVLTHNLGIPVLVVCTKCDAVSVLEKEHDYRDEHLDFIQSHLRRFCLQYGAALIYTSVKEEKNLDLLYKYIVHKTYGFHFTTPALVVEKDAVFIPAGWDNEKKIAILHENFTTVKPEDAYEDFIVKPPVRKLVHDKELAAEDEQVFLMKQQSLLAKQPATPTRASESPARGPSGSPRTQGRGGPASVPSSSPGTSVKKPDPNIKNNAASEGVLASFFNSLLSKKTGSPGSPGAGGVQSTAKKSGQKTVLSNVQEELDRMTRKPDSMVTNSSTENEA", "UniProt O95620": "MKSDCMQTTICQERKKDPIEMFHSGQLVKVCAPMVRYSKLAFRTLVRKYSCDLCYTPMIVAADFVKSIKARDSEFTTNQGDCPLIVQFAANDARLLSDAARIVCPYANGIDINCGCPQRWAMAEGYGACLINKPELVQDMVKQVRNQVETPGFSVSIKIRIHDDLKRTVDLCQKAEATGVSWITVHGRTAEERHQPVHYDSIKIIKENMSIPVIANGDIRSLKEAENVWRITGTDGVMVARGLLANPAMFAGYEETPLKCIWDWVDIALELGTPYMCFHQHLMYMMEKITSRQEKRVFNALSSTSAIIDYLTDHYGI", "UniProt Q7Z388": "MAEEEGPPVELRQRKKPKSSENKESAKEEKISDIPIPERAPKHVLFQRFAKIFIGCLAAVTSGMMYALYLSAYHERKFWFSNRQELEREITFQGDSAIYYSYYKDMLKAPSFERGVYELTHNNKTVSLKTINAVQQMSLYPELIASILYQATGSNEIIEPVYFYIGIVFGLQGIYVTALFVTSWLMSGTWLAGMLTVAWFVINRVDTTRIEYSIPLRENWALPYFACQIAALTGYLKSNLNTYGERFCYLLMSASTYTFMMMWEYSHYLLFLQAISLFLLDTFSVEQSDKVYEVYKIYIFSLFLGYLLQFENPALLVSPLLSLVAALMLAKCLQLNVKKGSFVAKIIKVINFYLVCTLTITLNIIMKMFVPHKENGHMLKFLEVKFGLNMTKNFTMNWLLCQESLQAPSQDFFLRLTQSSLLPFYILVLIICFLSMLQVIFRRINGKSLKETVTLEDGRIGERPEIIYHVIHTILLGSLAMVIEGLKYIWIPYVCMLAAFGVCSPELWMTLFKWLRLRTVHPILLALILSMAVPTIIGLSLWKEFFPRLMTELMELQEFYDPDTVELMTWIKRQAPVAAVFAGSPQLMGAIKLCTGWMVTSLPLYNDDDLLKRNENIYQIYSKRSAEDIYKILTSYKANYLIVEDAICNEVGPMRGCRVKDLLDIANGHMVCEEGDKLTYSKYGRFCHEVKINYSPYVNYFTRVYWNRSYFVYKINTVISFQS", "UniProt Q5VTE0, whole entry, looked up": "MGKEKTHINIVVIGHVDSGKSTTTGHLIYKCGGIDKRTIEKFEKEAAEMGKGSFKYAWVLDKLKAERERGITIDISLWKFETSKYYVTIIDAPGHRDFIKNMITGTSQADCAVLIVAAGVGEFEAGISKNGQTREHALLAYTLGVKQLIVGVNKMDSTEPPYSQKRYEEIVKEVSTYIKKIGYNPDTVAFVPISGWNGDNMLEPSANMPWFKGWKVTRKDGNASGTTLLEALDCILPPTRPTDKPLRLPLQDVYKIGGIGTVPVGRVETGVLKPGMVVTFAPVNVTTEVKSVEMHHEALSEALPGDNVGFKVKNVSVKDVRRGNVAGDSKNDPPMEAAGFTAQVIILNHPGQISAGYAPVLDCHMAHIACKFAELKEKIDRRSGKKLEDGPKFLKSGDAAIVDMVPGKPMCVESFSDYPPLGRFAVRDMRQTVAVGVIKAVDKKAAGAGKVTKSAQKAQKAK", "UniProt P0DPD7": "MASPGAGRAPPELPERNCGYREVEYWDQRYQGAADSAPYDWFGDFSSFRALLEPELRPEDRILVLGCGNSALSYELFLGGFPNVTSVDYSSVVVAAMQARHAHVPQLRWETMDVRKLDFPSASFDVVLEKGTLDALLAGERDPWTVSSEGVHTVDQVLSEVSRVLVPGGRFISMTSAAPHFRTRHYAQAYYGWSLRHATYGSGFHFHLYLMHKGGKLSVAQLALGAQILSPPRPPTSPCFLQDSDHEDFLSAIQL", "UniProt Q9C005, whole entry, looked up": "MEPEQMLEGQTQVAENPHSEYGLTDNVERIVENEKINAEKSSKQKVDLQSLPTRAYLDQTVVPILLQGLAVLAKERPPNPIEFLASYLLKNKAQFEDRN"},
  "source": "the supplement of paper PMC10849652",
  "note": "Some of the results follow.",
  "data": [
    {"compound": "C1=CC=C(C=C1)[C@H](COC2=CC3=C(C=C2)NC(=O)N3)NC(=O)C4=CC=CN(C4=O)CC5=CC(=C(C=C5)F)F", "assay": "log2 fold change, soluble protein after heating vs DMSO (PISA); higher = thermal stabilisation; K562 lysate, 10 uM; active = over 0.2 and 3.5 SD of the protein, either way, in both replicates (recomputed)", "procedure,_shortened": "(§1)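 Soluble protein was defined as the supernatant remaining after 21,000xg for 90 min, following pooling of heated aliquots and adjustment to 0.5% NP-40 at 4°C. Before that, crude K562 extract at 1 mg/mL protein in PBS pH 7.4 with 1 mM MgCl2 was treated with 10 μM compound for 30 min and heated for 3 min across 48°C-58°C. Quantification used TMTpro 16plex LC-MS/MS with channel sums equalised, and values are log-two fold changes in thermal stability relative to solvent controls from duplicates.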", "values": [
      {"target": "DTWD2 (UniProt Q8NBA8)", "log2 fold change": "inactive: -0.032"},
      {"target": "DUSP19 (UniProt Q8WTR2)", "log2 fold change": "inactive: -0.024"},
      {"target": "DPM3 isoform 2 (UniProt Q9P2X0)", "log2 fold change": "inactive: -0.082"},
      {"target": "EAF1 (UniProt Q96JC9)", "log2 fold change": "inactive: 0.034"},
      {"target": "EHHADH (UniProt Q08426)", "log2 fold change": "inactive: 0.035"},
      {"target": "DTYMK (UniProt P23919)", "log2 fold change": "inactive: -0.041"},
      {"target": "DUSP12 (UniProt Q9UNI6)", "log2 fold change": "inactive: -0.014"},
      {"target": "DRAM2 (UniProt Q6UX65)", "log2 fold change": "inactive: 0.088"},
      {"target": "DRAP1 isoform 2 (UniProt Q14919)", "log2 fold change": "inactive: 0.023"},
      {"target": "DSCAML1 (UniProt Q8TD84)", "log2 fold change": "inactive: 0.051"},
      {"target": "EEF1AKMT1 (UniProt Q8WVE0)", "log2 fold change": "inactive: -0.073"},
      {"target": "ECPAS (UniProt Q5VYK3)", "log2 fold change": "inactive: -0.032"},
      {"target": "DPP8 (UniProt Q6V1X1)", "log2 fold change": "inactive: -0.046"},
      {"target": "DTX2 (UniProt Q86UW9)", "log2 fold change": "inactive: -0.036"},
      {"target": "DYNLL1 (UniProt P63167)", "log2 fold change": "inactive: 0.016"},
      {"target": "EFNB1 (UniProt P98172)", "log2 fold change": "inactive: 0.005"},
      {"target": "ECHDC1 (UniProt Q9NTX5)", "log2 fold change": "inactive: 0.036"},
      {"target": "DYNC1LI2 (UniProt O43237)", "log2 fold change": "inactive: -0.001"},
      {"target": "DUS4L (UniProt O95620)", "log2 fold change": "inactive: 0.013"},
      {"target": "DPY19L4 (UniProt Q7Z388)", "log2 fold change": "inactive: -0.103"},
      {"target": "EEF1A1P5 (UniProt Q5VTE0)", "log2 fold change": "inactive: 0.006"},
      {"target": "DSG3 (UniProt P32926)", "log2 fold change": "inactive: 0.197"},
      {"target": "DVL3 (UniProt Q92997)", "log2 fold change": "inactive: -0.041"},
      {"target": "DST isoform 3 (UniProt Q03001)", "log2 fold change": "inactive: -0.039"},
      {"target": "EEF1AKMT4 (UniProt P0DPD7)", "log2 fold change": "inactive: -0.061"},
      {"target": "DYRK1A isoform 2 (UniProt Q13627)", "log2 fold change": "inactive: -0.001"}
    ]},
    {"compound": "CC1=C(SC2=C1C(=N[C@H](C3=NN=C(N32)C)CC(=O)N)C4=CC=C(C=C4)Cl)C", "assay": "log2 fold change, soluble protein after heating vs DMSO (PISA); higher = thermal stabilisation; K562 lysate, 10 uM; active = over 0.2 and 3.5 SD of the protein, either way, in both replicates (recomputed)", "procedure,_shortened": "as §1", "values": [
      {"target": "DTWD2 (UniProt Q8NBA8)", "log2 fold change": "inactive: -0.02"},
      {"target": "DUSP19 (UniProt Q8WTR2)", "log2 fold change": "inactive: -0.033"},
      {"target": "DPM3 isoform 2 (UniProt Q9P2X0)", "log2 fold change": "inactive: -0.03"},
      {"target": "EAF1 (UniProt Q96JC9)", "log2 fold change": "inactive: -0.054"},
      {"target": "EHHADH (UniProt Q08426)", "log2 fold change": "inactive: -0.143"},
      {"target": "DTYMK (UniProt P23919)", "log2 fold change": "inactive: 0.014"},
      {"target": "DUSP12 (UniProt Q9UNI6)", "log2 fold change": "inactive: 0.001"},
      {"target": "DRAM2 (UniProt Q6UX65)", "log2 fold change": "inactive: -0.001"},
      {"target": "DRAP1 isoform 2 (UniProt Q14919)", "log2 fold change": "inactive: -0.04"},
      {"target": "DSCAML1 (UniProt Q8TD84)", "log2 fold change": "inactive: -0.036"},
      {"target": "EEF1AKMT1 (UniProt Q8WVE0)", "log2 fold change": "inactive: -0.075"},
      {"target": "ECPAS (UniProt Q5VYK3)", "log2 fold change": "inactive: 0.013"},
      {"target": "DPP8 (UniProt Q6V1X1)", "log2 fold change": "inactive: 0.028"},
      {"target": "DTX2 (UniProt Q86UW9)", "log2 fold change": "inactive: 0.011"},
      {"target": "DYNLL1 (UniProt P63167)", "log2 fold change": "inactive: -0.057"},
      {"target": "EFNB1 (UniProt P98172)", "log2 fold change": "inactive: 0.003"},
      {"target": "ECHDC1 (UniProt Q9NTX5)", "log2 fold change": "inactive: 0.018"},
      {"target": "DYNC1LI2 (UniProt O43237)", "log2 fold change": "inactive: -0.053"},
      {"target": "DUS4L (UniProt O95620)", "log2 fold change": "inactive: 0.025"},
      {"target": "DPY19L4 (UniProt Q7Z388)", "log2 fold change": "inactive: 0.139"},
      {"target": "EEF1A1P5 (UniProt Q5VTE0)", "log2 fold change": "inactive: 0.011"},
      {"target": "DSG3 (UniProt P32926)", "log2 fold change": "inactive: 0.037"},
      {"target": "DVL3 (UniProt Q92997)", "log2 fold change": "inactive: 0.035"},
      {"target": "DST isoform 3 (UniProt Q03001)", "log2 fold change": "inactive: -0.033"},
      {"target": "EEF1AKMT4 (UniProt P0DPD7)", "log2 fold change": "inactive: 0.027"},
      {"target": "DYRK1A isoform 2 (UniProt Q13627)", "log2 fold change": "inactive: -0.028"}
    ]},
    {"compound": "CC1=C2C(=CC=C1)N=C(N(C2=O)C3=CC=CC=C3C)CN4C=NC5=C(N=CN=C54)N", "assay": "log2 fold change, soluble protein after heating vs DMSO (PISA); higher = thermal stabilisation; K562 lysate, 10 uM; active = over 0.2 and 3.5 SD of the protein, either way, in both replicates (recomputed)", "procedure,_shortened": "as §1", "values": [
      {"target": "DUSP14 (UniProt O95147)", "log2 fold change": "inactive: 0.069"},
      {"target": "EAF1 (UniProt Q96JC9)", "log2 fold change": "inactive: -0.031"},
      {"target": "DTYMK (UniProt P23919)", "log2 fold change": "inactive: -0.029"},
      {"target": "DUSP12 (UniProt Q9UNI6)", "log2 fold change": "inactive: 0.029"},
      {"target": "DRAP1 isoform 2 (UniProt Q14919)", "log2 fold change": "inactive: 0.008"},
      {"target": "ECPAS (UniProt Q5VYK3)", "log2 fold change": "inactive: 0.053"},
      {"target": "DPP8 (UniProt Q6V1X1)", "log2 fold change": "inactive: 0.041"},
      {"target": "EGFL7 (UniProt Q9UHF1)", "log2 fold change": "inactive: -0.077"},
      {"target": "EEF2KMT (UniProt Q96G04)", "log2 fold change": "inactive: 0.217"},
      {"target": "DYNLL1 (UniProt P63167)", "log2 fold change": "inactive: 0.02"},
      {"target": "EFNB1 (UniProt P98172)", "log2 fold change": "inactive: 0.032"},
      {"target": "DPY30 (UniProt Q9C005)", "log2 fold change": "inactive: 0.118"},
      {"target": "ECHDC1 (UniProt Q9NTX5)", "log2 fold change": "inactive: 0.033"},
      {"target": "DYNC1LI2 (UniProt O43237)", "log2 fold change": "inactive: 0.031"},
      {"target": "DUS4L (UniProt O95620)", "log2 fold change": "inactive: 0.061"},
      {"target": "EGLN2 (UniProt Q96KS0)", "log2 fold change": "inactive: -0.03"},
      {"target": "DPY19L4 (UniProt Q7Z388)", "log2 fold change": "inactive: -0.027"},
      {"target": "DVL1 (UniProt O14640)", "log2 fold change": "inactive: 0"},
      {"target": "EEF1A1P5 (UniProt Q5VTE0)", "log2 fold change": "inactive: 0.004"},
      {"target": "DYNC1I1 (UniProt O14576)", "log2 fold change": "inactive: -0.101"},
      {"target": "EDEM2 (UniProt Q9BV94)", "log2 fold change": "inactive: 0.001"},
      {"target": "DVL3 (UniProt Q92997)", "log2 fold change": "inactive: 0.164"},
      {"target": "EEF1AKMT4 (UniProt P0DPD7)", "log2 fold change": "inactive: -0.036"}
    ]}
  ]
}
